Assay results taken from the supplement of paper PMC12819154, “High-throughput peptide-centric local stability assay extends protein–ligand identification to membrane proteins, tissues and bacteria” (Nature Structural & Molecular Biology, 2025).
The list shows a part of the results. Most entries show no effect beyond the scatter of the controls.

Sequences of proteins named here, by UniProt entry; tags and fusion partners are left off. A change or cut given only in a name is not applied to a line headed by its entry.
UniProt Q6WKZ8: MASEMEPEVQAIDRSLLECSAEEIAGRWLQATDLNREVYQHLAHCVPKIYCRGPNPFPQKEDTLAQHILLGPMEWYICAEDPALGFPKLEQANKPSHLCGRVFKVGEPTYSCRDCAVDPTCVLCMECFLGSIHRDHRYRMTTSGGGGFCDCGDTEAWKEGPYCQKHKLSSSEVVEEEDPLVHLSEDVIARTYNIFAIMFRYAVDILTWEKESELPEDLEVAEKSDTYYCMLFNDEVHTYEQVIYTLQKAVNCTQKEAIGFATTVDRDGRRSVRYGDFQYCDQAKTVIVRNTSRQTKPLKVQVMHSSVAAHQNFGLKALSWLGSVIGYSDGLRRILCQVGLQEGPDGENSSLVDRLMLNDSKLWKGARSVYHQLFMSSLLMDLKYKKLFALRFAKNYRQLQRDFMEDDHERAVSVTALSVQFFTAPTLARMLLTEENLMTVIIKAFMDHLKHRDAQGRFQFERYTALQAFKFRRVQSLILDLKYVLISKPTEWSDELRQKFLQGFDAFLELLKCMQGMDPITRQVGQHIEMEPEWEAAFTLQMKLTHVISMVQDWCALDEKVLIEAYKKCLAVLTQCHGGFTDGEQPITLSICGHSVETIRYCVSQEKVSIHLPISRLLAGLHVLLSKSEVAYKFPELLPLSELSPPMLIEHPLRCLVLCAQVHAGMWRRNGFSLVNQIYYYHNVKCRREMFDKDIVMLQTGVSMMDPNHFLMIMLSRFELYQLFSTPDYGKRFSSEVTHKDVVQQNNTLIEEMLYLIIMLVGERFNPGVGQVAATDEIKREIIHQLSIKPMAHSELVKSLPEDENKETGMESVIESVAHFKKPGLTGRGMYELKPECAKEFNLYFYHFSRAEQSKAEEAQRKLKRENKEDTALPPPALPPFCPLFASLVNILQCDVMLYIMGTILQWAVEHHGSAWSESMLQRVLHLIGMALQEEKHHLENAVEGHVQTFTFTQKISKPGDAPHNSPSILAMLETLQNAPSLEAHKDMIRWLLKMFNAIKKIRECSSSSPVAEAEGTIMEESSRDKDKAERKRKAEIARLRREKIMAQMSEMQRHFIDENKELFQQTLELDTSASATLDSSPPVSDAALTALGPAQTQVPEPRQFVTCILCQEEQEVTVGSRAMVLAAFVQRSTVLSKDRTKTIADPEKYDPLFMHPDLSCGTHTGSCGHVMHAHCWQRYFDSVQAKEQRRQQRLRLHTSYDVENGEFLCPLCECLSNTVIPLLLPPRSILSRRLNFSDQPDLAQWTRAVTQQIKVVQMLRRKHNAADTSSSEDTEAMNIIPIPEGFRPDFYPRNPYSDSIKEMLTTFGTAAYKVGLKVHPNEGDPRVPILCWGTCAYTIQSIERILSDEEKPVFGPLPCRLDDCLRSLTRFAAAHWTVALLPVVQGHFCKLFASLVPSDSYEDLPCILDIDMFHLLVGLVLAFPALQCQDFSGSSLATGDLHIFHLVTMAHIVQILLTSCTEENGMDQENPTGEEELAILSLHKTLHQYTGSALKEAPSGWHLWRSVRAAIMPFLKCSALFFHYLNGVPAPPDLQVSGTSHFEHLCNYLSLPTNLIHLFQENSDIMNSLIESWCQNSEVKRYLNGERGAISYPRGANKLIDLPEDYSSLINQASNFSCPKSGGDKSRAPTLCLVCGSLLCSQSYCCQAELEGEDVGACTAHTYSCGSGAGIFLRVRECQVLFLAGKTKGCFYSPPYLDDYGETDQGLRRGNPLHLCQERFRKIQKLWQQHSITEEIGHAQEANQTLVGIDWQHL
UniProt Q6ZQ73: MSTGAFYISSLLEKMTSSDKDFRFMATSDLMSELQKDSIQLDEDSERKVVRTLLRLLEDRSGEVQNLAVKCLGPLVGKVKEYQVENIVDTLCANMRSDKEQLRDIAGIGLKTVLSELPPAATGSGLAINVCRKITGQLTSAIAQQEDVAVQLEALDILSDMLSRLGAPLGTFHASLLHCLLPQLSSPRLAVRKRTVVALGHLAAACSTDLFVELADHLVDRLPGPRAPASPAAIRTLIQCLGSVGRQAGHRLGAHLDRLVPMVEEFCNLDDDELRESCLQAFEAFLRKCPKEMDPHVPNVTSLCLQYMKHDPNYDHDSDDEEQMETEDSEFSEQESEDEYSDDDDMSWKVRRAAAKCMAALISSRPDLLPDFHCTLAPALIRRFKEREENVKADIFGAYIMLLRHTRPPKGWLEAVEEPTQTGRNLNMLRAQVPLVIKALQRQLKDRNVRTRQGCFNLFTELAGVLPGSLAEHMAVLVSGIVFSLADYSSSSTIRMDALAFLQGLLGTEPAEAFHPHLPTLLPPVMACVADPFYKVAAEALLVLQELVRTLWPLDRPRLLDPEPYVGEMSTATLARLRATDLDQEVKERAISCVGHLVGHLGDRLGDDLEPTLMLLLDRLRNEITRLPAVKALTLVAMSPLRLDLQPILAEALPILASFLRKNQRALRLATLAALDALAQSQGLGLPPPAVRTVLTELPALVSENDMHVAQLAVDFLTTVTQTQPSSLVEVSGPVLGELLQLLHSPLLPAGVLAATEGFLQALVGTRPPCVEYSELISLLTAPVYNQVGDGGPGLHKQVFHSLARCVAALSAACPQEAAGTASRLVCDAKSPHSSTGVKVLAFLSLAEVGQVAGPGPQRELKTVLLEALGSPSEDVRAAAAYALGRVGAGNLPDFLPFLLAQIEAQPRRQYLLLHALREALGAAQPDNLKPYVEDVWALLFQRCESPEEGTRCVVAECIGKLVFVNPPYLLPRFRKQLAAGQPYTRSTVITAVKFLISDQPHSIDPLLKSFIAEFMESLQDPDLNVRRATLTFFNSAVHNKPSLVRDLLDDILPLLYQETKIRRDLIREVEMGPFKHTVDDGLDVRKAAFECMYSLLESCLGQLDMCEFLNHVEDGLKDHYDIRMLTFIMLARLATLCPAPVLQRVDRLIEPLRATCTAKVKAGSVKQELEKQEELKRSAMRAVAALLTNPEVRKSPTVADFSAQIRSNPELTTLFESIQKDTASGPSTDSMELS
UniProt Q6ZPR6: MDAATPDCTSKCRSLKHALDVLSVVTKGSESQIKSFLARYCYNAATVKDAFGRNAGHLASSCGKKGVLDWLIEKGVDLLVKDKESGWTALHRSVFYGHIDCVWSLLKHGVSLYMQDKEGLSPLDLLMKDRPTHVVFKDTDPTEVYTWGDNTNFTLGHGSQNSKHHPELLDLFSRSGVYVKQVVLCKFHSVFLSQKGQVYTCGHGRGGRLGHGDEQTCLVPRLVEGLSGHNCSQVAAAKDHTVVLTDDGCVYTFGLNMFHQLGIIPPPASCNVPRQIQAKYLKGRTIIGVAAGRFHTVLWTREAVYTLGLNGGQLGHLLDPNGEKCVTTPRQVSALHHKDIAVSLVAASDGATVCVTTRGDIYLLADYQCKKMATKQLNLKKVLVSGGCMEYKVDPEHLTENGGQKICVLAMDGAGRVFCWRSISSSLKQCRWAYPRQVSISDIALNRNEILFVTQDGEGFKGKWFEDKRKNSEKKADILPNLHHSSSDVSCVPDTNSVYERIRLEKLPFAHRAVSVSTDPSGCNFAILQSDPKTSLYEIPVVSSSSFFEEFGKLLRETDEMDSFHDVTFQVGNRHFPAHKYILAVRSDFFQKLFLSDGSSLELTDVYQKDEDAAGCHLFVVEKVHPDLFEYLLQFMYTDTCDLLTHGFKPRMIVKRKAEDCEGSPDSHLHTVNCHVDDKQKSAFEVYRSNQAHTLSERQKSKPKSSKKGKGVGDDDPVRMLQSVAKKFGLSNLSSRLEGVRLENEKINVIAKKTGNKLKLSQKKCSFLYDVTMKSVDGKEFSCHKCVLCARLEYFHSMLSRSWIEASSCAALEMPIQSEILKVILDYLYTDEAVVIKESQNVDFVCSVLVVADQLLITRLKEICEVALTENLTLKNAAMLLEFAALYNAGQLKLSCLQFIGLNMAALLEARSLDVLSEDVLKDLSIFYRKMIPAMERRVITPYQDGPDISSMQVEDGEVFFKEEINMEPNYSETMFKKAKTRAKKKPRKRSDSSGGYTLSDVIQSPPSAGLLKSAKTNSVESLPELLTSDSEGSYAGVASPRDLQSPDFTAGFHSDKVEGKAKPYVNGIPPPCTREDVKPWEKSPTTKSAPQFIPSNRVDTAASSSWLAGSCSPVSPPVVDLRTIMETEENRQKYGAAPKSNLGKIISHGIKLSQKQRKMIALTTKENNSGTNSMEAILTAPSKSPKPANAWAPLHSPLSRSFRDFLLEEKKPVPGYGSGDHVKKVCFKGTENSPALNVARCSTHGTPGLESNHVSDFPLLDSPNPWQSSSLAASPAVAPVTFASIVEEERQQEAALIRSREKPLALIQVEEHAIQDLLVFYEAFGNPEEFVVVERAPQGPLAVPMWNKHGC
UniProt Q6ZPV2, whole entry: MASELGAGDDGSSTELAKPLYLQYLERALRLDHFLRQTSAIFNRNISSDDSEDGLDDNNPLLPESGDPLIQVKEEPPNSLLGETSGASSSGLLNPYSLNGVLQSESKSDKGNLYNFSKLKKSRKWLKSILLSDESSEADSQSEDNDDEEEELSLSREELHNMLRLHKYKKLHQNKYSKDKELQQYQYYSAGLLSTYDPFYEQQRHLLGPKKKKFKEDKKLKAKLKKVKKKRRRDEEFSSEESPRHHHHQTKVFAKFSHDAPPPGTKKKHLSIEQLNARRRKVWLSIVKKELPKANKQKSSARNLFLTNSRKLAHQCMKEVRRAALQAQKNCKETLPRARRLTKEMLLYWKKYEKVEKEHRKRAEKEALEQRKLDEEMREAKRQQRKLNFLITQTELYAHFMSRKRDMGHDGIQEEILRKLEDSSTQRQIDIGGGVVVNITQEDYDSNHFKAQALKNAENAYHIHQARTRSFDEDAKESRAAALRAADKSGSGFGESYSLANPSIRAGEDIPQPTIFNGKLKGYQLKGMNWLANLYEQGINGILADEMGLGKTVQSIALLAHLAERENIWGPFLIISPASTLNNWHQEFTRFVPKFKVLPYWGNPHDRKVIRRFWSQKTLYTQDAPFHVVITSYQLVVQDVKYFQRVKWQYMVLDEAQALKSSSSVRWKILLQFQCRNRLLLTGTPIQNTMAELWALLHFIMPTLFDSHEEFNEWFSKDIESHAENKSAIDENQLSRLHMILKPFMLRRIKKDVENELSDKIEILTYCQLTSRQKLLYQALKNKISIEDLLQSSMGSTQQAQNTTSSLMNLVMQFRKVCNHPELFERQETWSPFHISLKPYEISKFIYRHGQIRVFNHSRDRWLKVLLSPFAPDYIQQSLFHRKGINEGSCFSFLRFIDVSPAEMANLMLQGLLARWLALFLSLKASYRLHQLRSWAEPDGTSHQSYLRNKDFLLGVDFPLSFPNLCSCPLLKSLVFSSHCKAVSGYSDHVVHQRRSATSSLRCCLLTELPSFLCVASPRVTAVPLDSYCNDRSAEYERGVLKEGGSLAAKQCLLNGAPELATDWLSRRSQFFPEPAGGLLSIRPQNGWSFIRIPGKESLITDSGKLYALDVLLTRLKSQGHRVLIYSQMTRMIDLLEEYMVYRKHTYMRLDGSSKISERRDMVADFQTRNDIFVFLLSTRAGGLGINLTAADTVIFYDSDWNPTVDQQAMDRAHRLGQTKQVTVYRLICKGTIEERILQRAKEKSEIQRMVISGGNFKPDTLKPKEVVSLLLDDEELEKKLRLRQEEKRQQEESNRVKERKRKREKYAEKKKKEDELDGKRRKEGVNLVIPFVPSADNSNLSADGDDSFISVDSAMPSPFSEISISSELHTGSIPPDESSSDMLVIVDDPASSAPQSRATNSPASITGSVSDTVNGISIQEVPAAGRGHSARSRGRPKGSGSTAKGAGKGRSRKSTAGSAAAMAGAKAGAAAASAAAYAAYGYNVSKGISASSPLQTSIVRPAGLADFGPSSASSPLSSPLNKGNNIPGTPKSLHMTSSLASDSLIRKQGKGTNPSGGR
UniProt Q710D3: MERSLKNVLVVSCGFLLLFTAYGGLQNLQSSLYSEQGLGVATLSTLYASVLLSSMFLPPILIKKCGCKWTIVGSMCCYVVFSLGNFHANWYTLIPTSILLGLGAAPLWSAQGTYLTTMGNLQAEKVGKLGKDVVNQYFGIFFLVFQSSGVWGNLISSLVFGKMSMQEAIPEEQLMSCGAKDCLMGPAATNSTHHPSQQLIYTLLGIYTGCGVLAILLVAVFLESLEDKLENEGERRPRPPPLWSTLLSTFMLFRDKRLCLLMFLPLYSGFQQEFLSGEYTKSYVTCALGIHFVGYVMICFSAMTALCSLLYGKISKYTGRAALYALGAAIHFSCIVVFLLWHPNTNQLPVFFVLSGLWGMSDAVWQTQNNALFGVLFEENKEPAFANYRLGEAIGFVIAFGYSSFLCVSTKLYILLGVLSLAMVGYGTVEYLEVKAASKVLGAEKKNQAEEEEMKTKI

Each target was assayed with CN[C@@H]1C[C@H]2O[C@@](C)([C@@H]1OC)n1c3ccccc3c3c4c(c5c6ccccc6n2c5c31)C(=O)NC4 [staurosporine] (assay: log2 fold change of tryptic peptide abundance, ligand vs vehicle (limited proteolysis) (log2 ratio); higher = more trypsin-susceptible (destabilized)). Conditions: ligand concentration: 20 uM; sample: mouse liver crude lysate; replicate design: treated separately.

Row | Target | log2 fold change
1 | UniProt Q80TF6 (peptide sequence: HSEIPYR, peptide start residue: 621) | -0.134
2 | UniProt Q78IK4 (peptide sequence: LMDHGQSHPDDKDMYSTR, peptide start residue: 247) | -0.0999
3 | UniProt Q80SY4 (peptide sequence: HHTLSQLR, peptide start residue: 709) | 0.287
4 | UniProt Q6WKZ8 (peptide sequence: YFDSVQAK, peptide start residue: 1180) | 0.337
5 | UniProt Q80UQ2 (peptide sequence: THVLASEAR, peptide start residue: 116) | -0.295
6 | UniProt Q7TNE1 (peptide sequence: MSEAKPPPLLGQHTR, peptide start residue: 393) | -0.173
7 | UniProt Q7TMS5 (peptide sequence: SSLLDVLAAR, peptide start residue: 86) | -0.262
8 | UniProt Q6ZQ73 (peptide sequence: AVAALLTNPEVR, peptide start residue: 1183) | 0.218
9 | UniProt Q6ZPR6 (peptide sequence: KMIALTTK, peptide start residue: 1159) | 0.15
10 | UniProt Q7TMQ7 (peptide sequence: LFALQAEIHR, peptide start residue: 199) | 0.504
11 | UniProt Q6ZPV2 (peptide sequence: DMGHDGIQEEILR, peptide start residue: 406) | -0.263
12 | UniProt Q6ZQ88 (peptide sequence: NYPATVHGALLSGLR, peptide start residue: 807) | -0.0371
13 | UniProt Q80V24 (peptide sequence: IFSPHLNK, peptide start residue: 86) | 0.302
14 | UniProt Q7TSA6 (peptide sequence: KSQVTLPADAGDPQPATAPK, peptide start residue: 515) | -0.952
15 | UniProt Q78T81 (peptide sequence: LSGYSTEHSR, peptide start residue: 240) | -0.199
16 | UniProt Q6Y5D8 (peptide sequence: AHEAELER, peptide start residue: 24) | -0.333
17 | UniProt Q80SY5 (peptide sequence: EGHGSSSFDRELEREK, peptide start residue: 285) | -0.508
18 | UniProt Q80TD3 (peptide sequence: LHLPADFCIMHLEDR, peptide start residue: 1038) | 0.359
19 | UniProt Q6ZPF3 (peptide sequence: CELPLEK, peptide start residue: 1485) | -0.268
20 | UniProt Q7TSC1 (peptide sequence: VPKPDALK, peptide start residue: 977) | 0.296

Row | Target | log2 fold change
21 | UniProt Q6ZPJ0 (peptide sequence: IYDLSDSK, peptide start residue: 606) | -0.594
22 | UniProt Q7M757 (peptide sequence: LQELEQEK, peptide start residue: 273) | 0.0383
23 | UniProt Q70KY4 (peptide sequence: DKGDSNSSAGWK, peptide start residue: 196) | -0.109
24 | UniProt Q7TT18 (peptide sequence: FGAAKDDLK, peptide start residue: 687) | 0.3
25 | UniProt Q80U59 (peptide sequence: SILCSDSDSEVFHPR, peptide start residue: 1077) | -0.826
26 | UniProt Q80UZ2 (peptide sequence: INPFSSSTNK, peptide start residue: 634) | -0.166
27 | UniProt Q80UP8 (peptide sequence: ALSMTHGSAK, peptide start residue: 314) | -0.199
28 | UniProt Q7TN29 (peptide sequence: EDAQLPRK, peptide start residue: 168) | -0.53
29 | UniProt Q7TPQ3 (peptide sequence: RSETVSVLEATEEETR, peptide start residue: 71) | -0.382
30 | UniProt Q6ZQM0 (peptide sequence: ACGVHFASTTR, peptide start residue: 63) | 1.09
31 | UniProt Q80TY0 (peptide sequence: LWPFIKK, peptide start residue: 320) | -0.216
32 | UniProt Q80U78 (peptide sequence: GNVLVLSQHK, peptide start residue: 1070) | 0.222
33 | UniProt Q7TSN7 (peptide sequence: VSFDIASPQK, peptide start residue: 354) | 0.153
34 | UniProt Q80VD1 (peptide sequence: VDLSSEQAEK, peptide start residue: 197) | -0.389
35 | UniProt Q80V03 (peptide sequence: YVEIMSACHQR, peptide start residue: 119) | -0.341
36 | UniProt Q7TS68 (peptide sequence: VFLGNGISELSR, peptide start residue: 170) | 0.308
37 | UniProt Q710D3 (peptide sequence: NQAEEEEMKTK, peptide start residue: 447) | -0.419
38 | UniProt Q78ZA7 (peptide sequence: KYAALYQPLFDKR, peptide start residue: 94) | -0.471
39 | UniProt Q7TMM8 (peptide sequence: HDCKDFEALLADTGRLPNLK, peptide start residue: 50) | -0.278
40 | UniProt Q80T85 (peptide sequence: EACLTATAQR, peptide start residue: 709) | 0.245

Quoted from above: nos. 25 to 32
Row | Target | log2 fold change
25 | UniProt Q80U59 (peptide sequence: SILCSDSDSEVFHPR, peptide start residue: 1077) | -0.826
26 | UniProt Q80UZ2 (peptide sequence: INPFSSSTNK, peptide start residue: 634) | -0.166
27 | UniProt Q80UP8 (peptide sequence: ALSMTHGSAK, peptide start residue: 314) | -0.199
28 | UniProt Q7TN29 (peptide sequence: EDAQLPRK, peptide start residue: 168) | -0.53
29 | UniProt Q7TPQ3 (peptide sequence: RSETVSVLEATEEETR, peptide start residue: 71) | -0.382
30 | UniProt Q6ZQM0 (peptide sequence: ACGVHFASTTR, peptide start residue: 63) | 1.09
31 | UniProt Q80TY0 (peptide sequence: LWPFIKK, peptide start residue: 320) | -0.216
32 | UniProt Q80U78 (peptide sequence: GNVLVLSQHK, peptide start residue: 1070) | 0.222
